Assay results from PubChem BioAssay AID2685 (National Center for Advancing Translational Sciences (NCATS), 2010).
The other results are listed elsewhere or left out. Shown are side measurements of this screen, not its main read-out; they come without a call. Compounds called inactive in the main read-out are mostly missing here. Words in brackets tell the shape of the fitted curve; partial curves, single points and poor fits give uncertain potencies.

Assay: qHTS Assay for Lipid Storage Modulators in Drosophila S3 Cells;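 for cell number change: cells counted by Cell Tracker Red CMTPX staining in the red channel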
Conditions: BODIPY lipid droplet fluorescence, 18-24 h; for cell number change: measured here: cell count max response, cells fed with added oleic acid
Outline: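 Drosophila S3 cells loaded with oleic acid (400 uM, as added) and compounds at several concentrations; lipid droplets imaged by 488-nm laser-scanning cytometry, 500–530 nm intensity and object ratio to cell channel. Percent activity normalized to 20 uM Triacsin C.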

[1] = measured here: lipid fluorescence (Fed channel) AC50, cells fed with added oleic acid
[2] = measured here: cell number channel AC50, cells fed with added oleic acid

COc1ccccc1C(=O)C1CCCN(Cc2ccc3c(c2)OCCO3)C1 (centres undefined)
cell number change: 10.7%
AC50 [1]: 0.517 µM [falling, full curve, poor fit]

O=C(Nc1ccc2ccccc2n1)Nc1cccs1
AC50 [1]: 0.326 µM [rising, full curve, poor fit]

CC(C)(C)NS(=O)(=O)c1ccc2nc(NC(=O)c3ccc(N4C(=O)CCC4=O)cc3)sc2c1
cell number change: 52.4%
AC50 [2]: 29.1 µM [rising, single point]

COc1cccc(-n2nnnc2SCC(=O)Nc2ccccc2OC)c1
cell number change: 5.91%

CCOC(=O)N1CCC(NC(=O)c2cc(C(=O)Nc3ccc(OCC)cc3)ccc2CO)CC1
cell number change: 32.5%
AC50 [2]: 18.4 µM [rising, single point]
AC50 [1]: 14.6 µM [rising, single point]

COc1ccccc1Nc1ncnc2c1cnn2-c1cccc(C)c1
cell number change: 29.4%
AC50 [2]: 3.66 µM [rising, full curve, poor fit]

CS(=O)(=O)N1CCN(C(=O)Cc2ccccc2)CC1
cell number change: 4.78%
AC50 [1]: 29.1 µM [rising, single point]

Cc1ccc2nsnc2c1S(=O)(=O)N(Cc1ccco1)Cc1cc2cccc(C)c2[nH]c1=O
cell number change: 35.1%
AC50 [2]: 32.6 µM [rising, single point]
AC50 [1]: 4.11 µM [falling, single point]

O=C(c1[nH]ncc1-c1ccccc1)C1CO1 (centres undefined)
cell number change: 8.24%
AC50 [1]: 6.51 µM [falling, single point]

O=C(O)CCCC(=O)NCCCCc1ccccc1
cell number change: 3.22%
AC50 [2]: 0.0517 µM [falling, full curve, poor fit]

Cc1ccc(NC(=O)COc2ncnc3ccccc23)cc1S(=O)(=O)N1CCOCC1
cell number change: 0.482%

CCOc1ccc(CC(=O)NCCS(=O)(=O)N2CCN(c3ccccc3)CC2)cc1
AC50 [2]: 3.26 µM [rising, single point]

CC(C(=O)Nc1ccccc1C(=O)N1CCCC1)n1nnc2ccccc21 (centres undefined)
cell number change: -48.5%
AC50 [2]: 29.1 µM [falling, single point]
AC50 [1]: 29.1 µM [falling, single point]

COC(=O)[C@H](CCSC)NC(=O)Cn1ccc(N)nc1=O
cell number change: -15.1%
AC50 [2]: 0.461 µM [falling, partial curve, poor fit]

CCN(C(=O)c1cc2c(=O)n3ccccc3nc2n1C)C1CCCCC1
cell number change: 18.5%
AC50 [1]: 0.13 µM [rising, single point]

O=C(OCc1nnc(-c2ccccc2)o1)c1ccccc1
cell number change: 17.3%
AC50 [1]: 2.91 µM [falling, single point]

On1c(-c2ccccc2Cl)nc2ccccc21
cell number change: -5.35%

COc1cccc(/C=N/n2c(C3CCCCC3)n[nH]c2=S)c1
cell number change: -37.8%
AC50 [2]: 25.9 µM [falling, single point]
AC50 [1]: 25.9 µM [falling, single point]

COc1ccc2nc(/N=C/c3cccc(OC)c3O)sc2c1
cell number change: 9.72%
AC50 [1]: 0.58 µM [rising, single point]

O=C(Cn1cc([N+](=O)[O-])nc1[N+](=O)[O-])N1CCN(c2ccccc2)CC1
cell number change: -42.5%
AC50 [2]: 0.92 µM [falling, full curve, poor fit]
AC50 [1]: 0.461 µM [falling, full curve]

O=S(Cc1ccc(Cl)cc1)CC(O)COc1ccc(Cl)cc1 (centres undefined)
cell number change: -12.7%

COc1ccc(NC(=O)CN(C)C(=O)c2sc3ccccc3c2Cl)cc1
cell number change: -19%
AC50 [2]: 0.092 µM [falling, full curve, poor fit]
AC50 [1]: 14.6 µM [falling, partial curve]

N#CCC(=O)N/N=C/c1c2ccccc2cc2ccccc12
cell number change: 8.42%
AC50 [1]: 18.4 µM [rising, partial curve]

CCOc1ccccc1NC(=O)CN1C(=O)COc2ccc(S(=O)(=O)N3CCOCC3)cc21
cell number change: 34.7%

O=C(O)CCc1ccc(-c2ccc(Cl)cc2)n1CCC(=O)O
cell number change: 2.24%
AC50 [1]: 14.6 µM [falling, single point]

Cc1ccc2[nH]c(C(=O)N/N=C/c3ccccc3C(=O)O)c(-c3ccccc3)c2c1
cell number change: -22.8%
AC50 [1]: 29.1 µM [falling, single point]

Cc1ccc(O)c(Nc2nc(-c3ccccc3)nc3ccccc23)c1
cell number change: -17.5%
AC50 [1]: 29.1 µM [falling, single point]

COc1ccc(-c2ccc(CCC(=O)O)n2CC(C)C)cc1
cell number change: 59%
AC50 [2]: 7.31 µM [rising, partial curve, poor fit]

Cc1ccc(-n2c(SCC(=O)N/N=C/C=C/c3ccccc3[N+](=O)[O-])nc3ccccc3c2=O)cc1
cell number change: 39%
AC50 [2]: 0.82 µM [rising, full curve]
AC50 [1]: 1.46 µM [rising, full curve]

CCOC(=O)CCP(=O)(O)C(C)(O)c1ccccc1 (centres undefined)
cell number change: 35.5%
AC50 [2]: 25.9 µM [rising, single point]
AC50 [1]: 29.1 µM [falling, single point]

O=C(Nc1nnc(C2CC2)o1)c1ccc(S(=O)(=O)N2CCCc3ccccc32)cc1
cell number change: 20%
AC50 [1]: 7.31 µM [rising, partial curve, poor fit]

CCOC(=O)C1=NN(C(=O)Cc2ccccc2)C(O)(C(C)(C)C)C1 (centres undefined)
cell number change: 13.4%
AC50 [1]: 25.9 µM [rising, single point]

Cc1cc(C(=O)COc2cccnc2[N+](=O)[O-])c(C)n1-c1ccccc1F
cell number change: -3.81%
AC50 [1]: 29.1 µM [falling, single point]

O=C(COc1cccc2cccnc12)N1CCc2ccccc2C1
AC50 [2]: 1.46 µM [rising, partial curve]

CCCCCOc1ccc(Br)cc1/C(C)=N/NC1=NCCN1
cell number change: -72.1%
AC50 [2]: 18.4 µM [falling, partial curve]
AC50 [1]: 20.6 µM [falling, partial curve]

CCCOc1ccc(C(O)(CCN2CCCCC2)c2ccccc2OC)cc1 (centres undefined)
cell number change: 31.5%
AC50 [2]: 29.1 µM [rising, single point]
AC50 [1]: 23.1 µM [rising, partial curve]

O=C(c1cccc(NC2=NC3CS(=O)(=O)CC3S2)c1)N1CCN(c2cccc(Cl)c2)CC1 (centres undefined)
cell number change: -4.61%

Cc1noc(COc2ccccc2OCC(N)=O)c1Cl
cell number change: -22.7%
AC50 [1]: 0.0651 µM [rising, full curve, poor fit]

Cc1cc(NC(=O)CCSc2ccccc2)no1
cell number change: -5.52%
AC50 [1]: 0.731 µM [falling, full curve, poor fit]

O=C1CCC(=O)N1c1cccc(-c2nc3ccccc3o2)c1
cell number change: 2.16%
AC50 [2]: 2.59 µM [rising, partial curve, poor fit]

O=C(Nc1ccc(C(=O)O)cc1)/C(=C\c1ccco1)NC(=O)c1ccc(Br)o1
cell number change: -7.5%

C/C(=N\NC(=O)c1ccc(Br)cc1)C1C(=O)c2ccccc2C1=O
cell number change: -36%
AC50 [2]: 25.9 µM [falling, single point]

Cc1noc(C)c1CSCC(=O)N(C)CC(=O)Nc1ccc(F)cc1
cell number change: -94.1%
AC50 [2]: 29.1 µM [falling, single point]

CSc1nsc(SC)c1C(=O)O
AC50 [1]: 29.1 µM [falling, partial curve]

O=Cc1ccc(N2CCCC2)c(F)c1
cell number change: -1.32%

Cn1ncc([N+](=O)[O-])c1C(=O)Nc1ccccc1Cl
cell number change: -6.61%

Cc1ccc(-n2nnnc2SCC(=O)NC2CCS(=O)(=O)C2)c(C)c1 (centres undefined)
cell number change: -18.9%
AC50 [2]: 1.64 µM [falling, partial curve, poor fit]

O=C(CCN1C(=O)/C(=C\C=C\c2ccccc2)SC1=S)Nc1ccccc1C(=O)O
cell number change: 22.7%
AC50 [2]: 4.11 µM [rising, full curve, poor fit]

COc1ccc(C(=O)CSc2nnc(-c3cccnc3)n2Cc2ccco2)cc1
cell number change: 63.6%
AC50 [2]: 29.1 µM [rising, single point]
AC50 [1]: 29.1 µM [rising, single point]

COc1ccccc1N(C(=O)NCc1ccccc1)C1=NCC(C)S1 (centres undefined)
cell number change: -0.711%
AC50 [1]: 4.11 µM [rising, full curve, poor fit]

O=C(Nc1ccccc1Br)c1cc[n+]([O-])cc1
cell number change: 19.8%

CC(=O)Nc1ccc(C(=O)NC(CC(=O)O)c2ccc(Cl)cc2)cc1 (centres undefined)
AC50 [1]: 18.4 µM [falling, partial curve]

COc1ccc(C(=O)N2N=C3CC(C)(C)OCC3C2c2ccccc2)cc1 (centres undefined)
cell number change: 10.1%

N#Cc1c(N)nc(SCc2ccncc2)c(C#N)c1-c1cccs1
cell number change: -9.21%
AC50 [2]: 2.91 µM [rising, partial curve]
AC50 [1]: 3.26 µM [rising, full curve]

COc1cc(CO)c(OC)c([N+](=O)[O-])c1
cell number change: -8.09%
AC50 [1]: 6.51 µM [falling, single point]

CC(C)(C)C1CCC(=O)N(CCSc2ccccc2)CC1 (centres undefined)
AC50 [1]: 20.6 µM [falling, single point]

Cc1ccc2[nH]c(=O)c(-c3nc4cc(C)ccn4c3NCc3ccco3)cc2c1
cell number change: 55.9%
AC50 [2]: 29.1 µM [rising, single point]
AC50 [1]: 0.116 µM [rising, single point]

Cc1ccc(-n2c3c(cc(C(=O)O)c2=O)C(=O)CC(C)(C)C3)cc1
cell number change: -206%
AC50 [2]: 20.6 µM [falling, partial curve]
AC50 [1]: 23.1 µM [falling, partial curve]

Nc1cc(-c2ccco2)no1
cell number change: 2.01%

O=C(CCN1C(=O)c2cccnc2C1=O)NC1CCCCCC1
cell number change: -53.3%
AC50 [2]: 29.1 µM [falling, single point]
AC50 [1]: 29.1 µM [falling, single point]

O=C(CN(Cc1ccco1)C(=O)c1ccc(Cl)cc1)Nc1ccc(Cl)c(Cl)c1
cell number change: 50%
AC50 [2]: 20.6 µM [rising, partial curve]
